In patent US9199922B2, “Dihalophenoxyphenylamidines and use thereof as fungicides” (BAYER INTELLECTUAL PROPERTY GMBH, priority 2007, dated 2015):
Some of these results come from one statement about several compounds together.

Legend:
Assay type in all cases: in vivo
Puccinia recondita = assay: Puccinia test (wheat)/protective; details: 1000 ppm active compound, protective, evaluation 10 days after inoculation
Sphaerotheca fuliginea = assay: Sphaerotheca test (cucumber)/protective; details: 100 ppm active compound, protective, evaluation 7 days after inoculation
[1] = tested on: Erysiphe graminis Esp. hordei; assay: Erysiphe test (barley)/protective; details: 500 ppm active compound, protective, evaluation 7 days after inoculation
Podosphaera leucotricha = assay: Podosphaera test (apple)/protective; details: 100 ppm active compound, protective, evaluation 10 days after inoculation
Leptosphaeria nodorum = Leptosphaeria nodorum test (wheat)/protective; details: 500 ppm active compound, protective, evaluation 7 days after inoculation
Uromyces appendiculatus = assay: Uromyces test (bean)/protective; details: 10 ppm active compound, protective, evaluation 10 days after inoculation

Measured: efficacy

CCN(C)C=Nc1cc(C)c(Oc2cc(Cl)cc(Br)c2)cc1C [Compound 6]
≥ 70%: Puccinia recondita | Sphaerotheca fuliginea | [1] | Podosphaera leucotricha

Cc1cc(Oc2ccc(Cl)c(Br)c2)c(C)cc1N=CN1CCCCC1 [Compound 16]
≥ 70%: Puccinia recondita

Cc1cc(Oc2cc(F)cc(I)c2)c(C)cc1N=CN1CCCCC1 [Compound 21]
≥ 70%: Puccinia recondita | Leptosphaeria nodorum

CCCN(C)C=Nc1cc(C)c(Oc2ccc(Br)c(Br)c2)cc1C [Compound 38]
≥ 70%: Puccinia recondita | Sphaerotheca fuliginea | Uromyces appendiculatus | Leptosphaeria nodorum

Cc1cc(Oc2ccc(Cl)c(I)c2)c(C)cc1N=CN1CCCCC1 [Compound 26]
≥ 70%: Puccinia recondita | Sphaerotheca fuliginea | Leptosphaeria nodorum

CCN(C)C=Nc1cc(C)c(Oc2ccc(Br)c(I)c2)cc1C [Compound 27]
≥ 70%: Puccinia recondita | Sphaerotheca fuliginea | Uromyces appendiculatus | Leptosphaeria nodorum

CCN(C)C=Nc1cc(C)c(Oc2cc(F)cc(Cl)c2)cc1C [Compound 8]
≥ 70%: Puccinia recondita | Sphaerotheca fuliginea | [1] | Uromyces appendiculatus

Cc1cc(Oc2ccc(Cl)c(I)c2)c(C)cc1N=CN(C)C(C)C [Compound 24]
not listed: [1]
≥ 70%: all other assays above

CCN(C)C=Nc1cc(C)c(Oc2ccc(Cl)c(I)c2)cc1C [Compound 25]
≥ 70%: Puccinia recondita | Leptosphaeria nodorum | Podosphaera leucotricha

Cc1cc(Oc2cc(F)cc(Cl)c2)c(C)cc1N=CN1CCCC1 [Compound 10]
≥ 70%: Sphaerotheca fuliginea

Cc1cc(Oc2cc(Cl)cc(Br)c2)c(C)cc1N=CN(C)C(C)C [Compound 7]
not listed: Leptosphaeria nodorum
≥ 70%: all other assays above

Cc1cc(Oc2cc(F)cc(F)c2)c(C)cc1N=CN1CCCCC1 [Compound 35]
≥ 70%: Puccinia recondita | Sphaerotheca fuliginea | Uromyces appendiculatus | Leptosphaeria nodorum

Cc1cc(Oc2cc(F)cc(Br)c2)c(C)cc1N=CN1CCCCC1 [Compound 12]
≥ 70%: Puccinia recondita | [1]

CCN(C)C=Nc1cc(C)c(Oc2ccc(F)c(Br)c2)cc1C [Compound 23]
≥ 70%: Puccinia recondita | Sphaerotheca fuliginea | Uromyces appendiculatus

Cc1cc(Oc2cc(Br)cc(Br)c2)c(C)cc1N=CN(C)C(C)C [Compound 5]
≥ 70%: Puccinia recondita | [1]

CCN(C)C=Nc1cc(C)c(Oc2ccc(Br)c(F)c2)cc1C [Compound 32]
≥ 70%: Puccinia recondita | Sphaerotheca fuliginea | Uromyces appendiculatus | Leptosphaeria nodorum

CCN(C)C=Nc1cc(C)c(Oc2cc(Br)cc(Br)c2)cc1C [Compound 4]
≥ 70%: Puccinia recondita | Sphaerotheca fuliginea | [1] | Podosphaera leucotricha

CCCN(C)C=Nc1cc(C)c(Oc2cc(F)cc(Br)c2)cc1C [Compound 28]
≥ 70%: Puccinia recondita | Sphaerotheca fuliginea

CCN(C)C=Nc1cc(C)c(Oc2cc(F)cc(I)c2)cc1C [Compound 19]
≥ 70%: Puccinia recondita

CCCN(C)C=Nc1cc(C)c(Oc2cc(F)cc(Cl)c2)cc1C [Compound 11]
≥ 70%: Puccinia recondita | Sphaerotheca fuliginea | [1] | Podosphaera leucotricha

CCCN(C)C=Nc1cc(C)c(Oc2cc(F)cc(F)c2)cc1C [Compound 33]
≥ 70%: Puccinia recondita | Sphaerotheca fuliginea | Uromyces appendiculatus | Leptosphaeria nodorum

C=CCN(C)C=Nc1cc(C)c(Oc2ccc(Br)c(Br)c2)cc1C [Compound 37]
≥ 70%: Puccinia recondita | Leptosphaeria nodorum

CCN(C)C=Nc1cc(C)c(Oc2cc(F)cc(Br)c2)cc1C [Compound 3]
≥ 70%: all assays above

CCN(C)C=Nc1cc(C)c(Oc2ccc(Cl)c(Br)c2)cc1C [Compound 15]
≥ 70%: Puccinia recondita | Sphaerotheca fuliginea | Uromyces appendiculatus | Leptosphaeria nodorum

CCN(C)C=Nc1cc(C)c(Oc2ccc3c(c2)CCCC3)cc1C [Compound 13]
≥ 70%: Puccinia recondita | Sphaerotheca fuliginea | [1]

Cc1cc(Oc2cc(F)cc(Cl)c2)c(C)cc1N=CN1CCCCC1 [Compound 9]
≥ 70%: Puccinia recondita | Sphaerotheca fuliginea | [1] | Podosphaera leucotricha

CCCN(C)C=Nc1cc(C)c(Oc2cc(F)cc(Br)c2)cc1C [Compound 14]
≥ 70%: Puccinia recondita | Sphaerotheca fuliginea | [1]
